# Source: PubChem BioAssay AID1224830 (NIAID, 2016)
# Purpose: 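Host factors that control LPS-induced TNF expression in human macrophages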 (primary screen)
# Cells: human THP-1 monocytic leukaemia cells, TNF dual-luciferase reporter clone, PMA-differentiated to macrophage-like cells
# Knock-down reagent: siRNA pool against human genes, 50 nM
# Time to read-out: LPS for 4 h, given about 3 days after siRNA transfection
# Treatment: bacterial LPS (TLR4 ligand), 10 ng/ml
# Detection: 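Ratio of firefly to renilla light, scaled to the plate median and expressed as a robust z-score per replicate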
# Reading the numbers: TNF reporter robust z-score: higher = stronger TNF reporter response to LPS
# Call rule: 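a well is active when its z-score exceeds 2.8 or falls below -1.5; control wells carry no call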
# The whole screen tested about 18,000 reagents; this is a part drawn at random. About 2,900 of all reagents (16%) were called active. 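Calls are made per well; low scores hint the gene aids the LPS response, high scores that it dampens it.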 Repeated entries: four replicate wells of each siRNA pool.
gene,TNF reporter robust z-score,outcome
H4C9 (H4 clustered histone 9),0.19,inactive
H4C9 (H4 clustered histone 9),0.36,inactive
H4C9 (H4 clustered histone 9),0.11,inactive
H4C9 (H4 clustered histone 9),0.22,inactive
SPATC1L (spermatogenesis and centriole associated 1 like),-0.9,inactive
SPATC1L (spermatogenesis and centriole associated 1 like),-0.14,inactive
SPATC1L (spermatogenesis and centriole associated 1 like),0.55,inactive
SPATC1L (spermatogenesis and centriole associated 1 like),-0.65,inactive
LCN15 (lipocalin 15),-1.13,inactive
LCN15 (lipocalin 15),-1.69,active
LCN15 (lipocalin 15),-1.61,active
LCN15 (lipocalin 15),-1.11,inactive
COX8C (cytochrome c oxidase subunit 8C),0.51,inactive
COX8C (cytochrome c oxidase subunit 8C),4.19,active
COX8C (cytochrome c oxidase subunit 8C),3.58,active
COX8C (cytochrome c oxidase subunit 8C),1.1,inactive
BTBD9 (BTB domain containing 9),0.07,inactive
BTBD9 (BTB domain containing 9),-0.6,inactive
BTBD9 (BTB domain containing 9),0.6,inactive
BTBD9 (BTB domain containing 9),0.72,inactive
CYP4Z1 (cytochrome P450 family 4 subfamily Z member 1),0.4,inactive
CYP4Z1 (cytochrome P450 family 4 subfamily Z member 1),1.08,inactive
CYP4Z1 (cytochrome P450 family 4 subfamily Z member 1),0.49,inactive
CYP4Z1 (cytochrome P450 family 4 subfamily Z member 1),-0.12,inactive
"OTUB1 (OTU deubiquitinase, ubiquitin aldehyde binding 1)",-1.04,inactive
"OTUB1 (OTU deubiquitinase, ubiquitin aldehyde binding 1)",-0.53,inactive
"OTUB1 (OTU deubiquitinase, ubiquitin aldehyde binding 1)",-0.95,inactive
"OTUB1 (OTU deubiquitinase, ubiquitin aldehyde binding 1)",-1.02,inactive
APOBEC3D (apolipoprotein B mRNA editing enzyme catalytic subunit 3D),0.07,inactive
APOBEC3D (apolipoprotein B mRNA editing enzyme catalytic subunit 3D),1.2,inactive
APOBEC3D (apolipoprotein B mRNA editing enzyme catalytic subunit 3D),-0.22,inactive
APOBEC3D (apolipoprotein B mRNA editing enzyme catalytic subunit 3D),-1.04,inactive
ENG (endoglin),0.47,inactive
ENG (endoglin),-0.16,inactive
ENG (endoglin),0.37,inactive
ENG (endoglin),0.44,inactive
DDX19B (DEAD-box helicase 19B),-0.29,inactive
DDX19B (DEAD-box helicase 19B),0.63,inactive
DDX19B (DEAD-box helicase 19B),-0.21,inactive
DDX19B (DEAD-box helicase 19B),0.57,inactive
SKIDA1 (SKI/DACH domain containing 1),-1.62,active
SKIDA1 (SKI/DACH domain containing 1),-0.5,inactive
SKIDA1 (SKI/DACH domain containing 1),-0.95,inactive
SKIDA1 (SKI/DACH domain containing 1),-0.56,inactive
FBXO11 (F-box protein 11),-1.31,inactive
FBXO11 (F-box protein 11),3.37,active
FBXO11 (F-box protein 11),-0.77,inactive
FBXO11 (F-box protein 11),2.23,inactive

Records above marked active (6):
gene,TNF reporter robust z-score,outcome
LCN15 (lipocalin 15),-1.69,active
LCN15 (lipocalin 15),-1.61,active
COX8C (cytochrome c oxidase subunit 8C),4.19,active
COX8C (cytochrome c oxidase subunit 8C),3.58,active
SKIDA1 (SKI/DACH domain containing 1),-1.62,active
FBXO11 (F-box protein 11),3.37,active
